Patent publication US20020115147A1
Results are given in words; binding and its absence hold for the method and conditions named. In cells and extracts the contact can be indirect. Some entries that bind do so weakly or less than the wild type.

The chains behind the UniProt entries cited, without tags or fusion partners. Where a name states a change or a piece, a line headed by the entry shows the natural chain unless it says otherwise.
UniProt Q04095: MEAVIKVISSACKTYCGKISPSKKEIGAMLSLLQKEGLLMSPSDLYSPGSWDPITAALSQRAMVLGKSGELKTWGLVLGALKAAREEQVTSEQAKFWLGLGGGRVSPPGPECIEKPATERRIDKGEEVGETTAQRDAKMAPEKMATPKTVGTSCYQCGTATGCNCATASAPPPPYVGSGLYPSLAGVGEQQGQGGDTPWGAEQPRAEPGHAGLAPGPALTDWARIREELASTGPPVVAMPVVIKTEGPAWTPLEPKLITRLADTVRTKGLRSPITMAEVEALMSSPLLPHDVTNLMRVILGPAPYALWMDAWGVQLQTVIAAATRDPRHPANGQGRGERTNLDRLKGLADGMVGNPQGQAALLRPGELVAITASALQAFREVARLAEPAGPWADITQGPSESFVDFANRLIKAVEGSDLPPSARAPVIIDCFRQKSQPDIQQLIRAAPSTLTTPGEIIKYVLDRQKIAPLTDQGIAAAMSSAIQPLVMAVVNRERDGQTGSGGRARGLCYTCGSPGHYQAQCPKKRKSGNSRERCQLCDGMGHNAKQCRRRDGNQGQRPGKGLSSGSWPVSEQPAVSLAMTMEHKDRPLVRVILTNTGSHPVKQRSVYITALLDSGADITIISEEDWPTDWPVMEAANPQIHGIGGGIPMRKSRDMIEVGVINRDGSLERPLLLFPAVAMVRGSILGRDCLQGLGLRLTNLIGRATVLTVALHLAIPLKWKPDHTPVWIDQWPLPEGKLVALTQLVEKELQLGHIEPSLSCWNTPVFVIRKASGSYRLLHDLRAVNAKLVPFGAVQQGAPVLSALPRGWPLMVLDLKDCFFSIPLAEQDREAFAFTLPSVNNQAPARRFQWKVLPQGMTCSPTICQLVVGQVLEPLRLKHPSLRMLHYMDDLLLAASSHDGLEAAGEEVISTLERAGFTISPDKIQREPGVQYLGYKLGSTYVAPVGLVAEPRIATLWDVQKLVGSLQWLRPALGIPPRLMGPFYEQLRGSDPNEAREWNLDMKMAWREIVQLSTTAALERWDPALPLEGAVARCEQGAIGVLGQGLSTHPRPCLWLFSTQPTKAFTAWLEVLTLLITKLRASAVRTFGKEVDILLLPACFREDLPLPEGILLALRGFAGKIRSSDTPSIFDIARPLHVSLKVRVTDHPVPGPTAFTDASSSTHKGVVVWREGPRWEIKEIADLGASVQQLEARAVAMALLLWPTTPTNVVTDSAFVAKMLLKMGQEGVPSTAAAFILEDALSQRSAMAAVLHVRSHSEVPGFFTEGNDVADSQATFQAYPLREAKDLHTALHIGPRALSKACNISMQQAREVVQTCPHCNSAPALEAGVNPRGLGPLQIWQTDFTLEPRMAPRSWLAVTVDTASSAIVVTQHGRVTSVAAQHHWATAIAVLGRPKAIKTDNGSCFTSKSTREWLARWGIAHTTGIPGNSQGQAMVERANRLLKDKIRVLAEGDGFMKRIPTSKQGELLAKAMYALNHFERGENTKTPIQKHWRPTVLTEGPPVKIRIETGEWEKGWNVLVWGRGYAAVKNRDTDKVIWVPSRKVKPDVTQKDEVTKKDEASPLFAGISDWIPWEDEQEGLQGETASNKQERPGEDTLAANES

Key:
[1] = target: β-chain of the AMV-RT with an N-terminal His tag (expressed from pAMV-βdnaY-His or pAMVαβ-4) (Avian Myeloblastosis Virus) (UniProt Q04095); test: co-purification of Arg-tagged α-chain with His-tagged β-chain over Ni-chelate, heparin-sepharose, S-sepharose and hydroxylapatite columns; SDS gel of the final preparation
[2] = target: β-chain of the AMV-RT with an N-terminal His tag (expressed from pAMV-βdnaY-His or pAMVαβ-4) (Avian Myeloblastosis Virus) (UniProt Q04095); test: co-purification of His-tagged α- and β-chains over Ni-chelate and heparin-sepharose columns; SDS gel of the final preparation

“α-chain of the AMV-RT with an N-terminal Arg-tag (expressed from pAMV-αlacIq-Arg) (from UniProt Q04095 709-1280) (enzyme)” was tested, and the binding [1] was “binds”.
With “α-chain of the AMV-RT with a His-tag like that of the β-chain (from pAMV-αlacIq-His-trpT, combined on pAMVαβ-4) (from UniProt Q04095 709-1280) (enzyme)” the binding [2] was “binds”.
